The values below come from the supplement of paper PMC12067093, “Discovery and optimisation of a covalent ligand for TRIM25 and its application to targeted protein ubiquitination” (Chemical Science, 2025).

Chains of the proteins cited; added tags and fusions are not shown. Lines headed by an entry give the natural chain unless they say otherwise; changes in a name come on top.
UniProt O95163: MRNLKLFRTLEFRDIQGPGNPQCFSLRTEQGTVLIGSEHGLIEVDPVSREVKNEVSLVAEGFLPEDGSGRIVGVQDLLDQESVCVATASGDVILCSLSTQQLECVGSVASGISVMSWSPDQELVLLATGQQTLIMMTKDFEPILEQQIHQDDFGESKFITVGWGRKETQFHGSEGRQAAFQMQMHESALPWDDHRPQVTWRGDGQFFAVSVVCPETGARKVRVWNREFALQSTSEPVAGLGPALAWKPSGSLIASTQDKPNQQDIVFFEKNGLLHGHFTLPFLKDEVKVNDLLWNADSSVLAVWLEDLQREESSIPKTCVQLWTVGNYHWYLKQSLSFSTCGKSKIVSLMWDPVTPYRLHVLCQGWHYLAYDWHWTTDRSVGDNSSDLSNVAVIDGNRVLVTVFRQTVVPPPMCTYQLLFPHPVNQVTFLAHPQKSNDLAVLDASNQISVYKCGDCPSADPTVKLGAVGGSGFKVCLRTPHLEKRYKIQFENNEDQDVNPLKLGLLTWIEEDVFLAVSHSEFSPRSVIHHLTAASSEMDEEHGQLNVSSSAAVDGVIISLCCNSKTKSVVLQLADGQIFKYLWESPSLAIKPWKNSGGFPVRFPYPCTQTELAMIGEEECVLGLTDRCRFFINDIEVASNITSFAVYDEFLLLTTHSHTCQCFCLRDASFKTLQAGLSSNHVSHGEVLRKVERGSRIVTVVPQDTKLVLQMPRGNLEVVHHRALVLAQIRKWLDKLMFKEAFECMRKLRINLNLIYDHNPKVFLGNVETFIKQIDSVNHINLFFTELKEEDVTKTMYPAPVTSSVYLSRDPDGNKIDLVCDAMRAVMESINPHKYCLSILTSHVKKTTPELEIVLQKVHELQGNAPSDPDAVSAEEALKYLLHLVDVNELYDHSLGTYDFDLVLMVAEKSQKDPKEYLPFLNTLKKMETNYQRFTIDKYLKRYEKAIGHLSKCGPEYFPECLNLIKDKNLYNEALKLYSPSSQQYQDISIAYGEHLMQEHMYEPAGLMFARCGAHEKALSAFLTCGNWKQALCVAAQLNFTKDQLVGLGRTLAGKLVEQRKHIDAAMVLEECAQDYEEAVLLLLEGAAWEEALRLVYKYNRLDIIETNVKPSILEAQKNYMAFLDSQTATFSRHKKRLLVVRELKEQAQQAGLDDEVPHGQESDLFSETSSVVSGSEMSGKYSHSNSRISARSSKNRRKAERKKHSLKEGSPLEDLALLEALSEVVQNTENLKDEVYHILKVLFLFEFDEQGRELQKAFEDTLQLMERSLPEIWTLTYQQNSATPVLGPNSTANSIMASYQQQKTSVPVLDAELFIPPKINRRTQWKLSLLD
UniProt O43402: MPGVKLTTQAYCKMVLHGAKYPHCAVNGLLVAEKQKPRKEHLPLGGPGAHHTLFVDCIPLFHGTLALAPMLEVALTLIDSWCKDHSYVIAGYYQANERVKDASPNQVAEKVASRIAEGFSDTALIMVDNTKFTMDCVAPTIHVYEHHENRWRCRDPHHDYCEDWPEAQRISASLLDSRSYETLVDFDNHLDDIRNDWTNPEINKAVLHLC
UniProt P55884, whole entry, looked up: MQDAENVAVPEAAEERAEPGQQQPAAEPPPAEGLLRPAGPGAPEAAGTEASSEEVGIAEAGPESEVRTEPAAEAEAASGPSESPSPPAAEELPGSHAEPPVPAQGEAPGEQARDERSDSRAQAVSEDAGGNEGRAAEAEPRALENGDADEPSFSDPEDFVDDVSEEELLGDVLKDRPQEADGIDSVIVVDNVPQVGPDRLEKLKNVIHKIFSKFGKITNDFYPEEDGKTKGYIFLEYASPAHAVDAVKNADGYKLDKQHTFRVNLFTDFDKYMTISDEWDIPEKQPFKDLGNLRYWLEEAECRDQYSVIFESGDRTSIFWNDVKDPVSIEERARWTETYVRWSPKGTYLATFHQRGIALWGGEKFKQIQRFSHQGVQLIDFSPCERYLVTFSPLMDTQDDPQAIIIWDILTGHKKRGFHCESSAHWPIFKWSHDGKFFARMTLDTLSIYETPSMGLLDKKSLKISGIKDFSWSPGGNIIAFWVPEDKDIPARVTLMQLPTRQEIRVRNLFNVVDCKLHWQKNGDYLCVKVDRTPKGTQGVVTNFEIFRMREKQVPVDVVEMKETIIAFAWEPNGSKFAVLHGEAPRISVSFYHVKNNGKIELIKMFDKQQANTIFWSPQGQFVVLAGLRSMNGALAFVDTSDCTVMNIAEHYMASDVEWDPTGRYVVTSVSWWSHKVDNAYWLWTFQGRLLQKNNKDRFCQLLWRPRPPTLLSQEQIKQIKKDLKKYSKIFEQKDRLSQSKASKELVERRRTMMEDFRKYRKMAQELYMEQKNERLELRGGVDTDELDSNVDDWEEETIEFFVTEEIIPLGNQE
UniProt O43432, whole entry, looked up: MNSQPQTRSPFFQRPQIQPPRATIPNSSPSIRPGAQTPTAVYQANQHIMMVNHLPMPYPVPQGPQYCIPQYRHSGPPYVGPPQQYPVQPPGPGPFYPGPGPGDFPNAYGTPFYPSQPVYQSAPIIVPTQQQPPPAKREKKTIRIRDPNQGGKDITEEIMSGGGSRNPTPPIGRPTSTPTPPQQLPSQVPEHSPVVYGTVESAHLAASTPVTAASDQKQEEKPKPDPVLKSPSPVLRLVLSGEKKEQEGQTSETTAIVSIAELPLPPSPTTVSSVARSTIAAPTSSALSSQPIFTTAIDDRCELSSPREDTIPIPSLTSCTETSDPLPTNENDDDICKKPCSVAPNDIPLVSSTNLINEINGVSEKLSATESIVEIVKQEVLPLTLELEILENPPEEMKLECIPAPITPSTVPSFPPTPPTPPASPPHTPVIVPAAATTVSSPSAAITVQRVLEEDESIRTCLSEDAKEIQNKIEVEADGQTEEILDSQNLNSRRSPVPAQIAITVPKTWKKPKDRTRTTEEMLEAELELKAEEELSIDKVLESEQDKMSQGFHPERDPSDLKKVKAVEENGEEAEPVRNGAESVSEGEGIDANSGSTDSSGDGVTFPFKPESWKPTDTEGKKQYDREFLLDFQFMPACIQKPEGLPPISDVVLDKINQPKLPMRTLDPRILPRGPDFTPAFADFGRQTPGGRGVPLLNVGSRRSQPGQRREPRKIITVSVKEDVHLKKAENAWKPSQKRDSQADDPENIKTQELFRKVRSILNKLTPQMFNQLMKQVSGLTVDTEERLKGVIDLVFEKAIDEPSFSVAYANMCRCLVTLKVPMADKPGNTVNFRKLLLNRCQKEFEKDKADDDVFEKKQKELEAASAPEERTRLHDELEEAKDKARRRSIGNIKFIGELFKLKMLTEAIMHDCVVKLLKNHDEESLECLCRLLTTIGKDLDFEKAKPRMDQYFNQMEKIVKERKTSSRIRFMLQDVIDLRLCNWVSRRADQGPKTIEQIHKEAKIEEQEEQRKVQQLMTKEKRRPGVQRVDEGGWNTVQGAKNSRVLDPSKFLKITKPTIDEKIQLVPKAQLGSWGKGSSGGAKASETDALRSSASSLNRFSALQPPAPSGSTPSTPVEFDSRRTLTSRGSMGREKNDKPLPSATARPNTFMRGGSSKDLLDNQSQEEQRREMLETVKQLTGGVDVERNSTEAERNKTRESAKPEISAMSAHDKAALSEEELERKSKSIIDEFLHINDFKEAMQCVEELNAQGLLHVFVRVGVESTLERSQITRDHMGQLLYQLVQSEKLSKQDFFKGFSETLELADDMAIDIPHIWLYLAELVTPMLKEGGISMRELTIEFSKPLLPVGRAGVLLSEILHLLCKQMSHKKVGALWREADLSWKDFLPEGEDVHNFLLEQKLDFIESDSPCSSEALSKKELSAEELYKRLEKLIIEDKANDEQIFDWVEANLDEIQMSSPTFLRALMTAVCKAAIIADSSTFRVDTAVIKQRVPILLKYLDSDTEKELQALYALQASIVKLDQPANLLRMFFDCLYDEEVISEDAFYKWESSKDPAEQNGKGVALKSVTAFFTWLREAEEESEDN
UniProt O15371, whole entry, looked up: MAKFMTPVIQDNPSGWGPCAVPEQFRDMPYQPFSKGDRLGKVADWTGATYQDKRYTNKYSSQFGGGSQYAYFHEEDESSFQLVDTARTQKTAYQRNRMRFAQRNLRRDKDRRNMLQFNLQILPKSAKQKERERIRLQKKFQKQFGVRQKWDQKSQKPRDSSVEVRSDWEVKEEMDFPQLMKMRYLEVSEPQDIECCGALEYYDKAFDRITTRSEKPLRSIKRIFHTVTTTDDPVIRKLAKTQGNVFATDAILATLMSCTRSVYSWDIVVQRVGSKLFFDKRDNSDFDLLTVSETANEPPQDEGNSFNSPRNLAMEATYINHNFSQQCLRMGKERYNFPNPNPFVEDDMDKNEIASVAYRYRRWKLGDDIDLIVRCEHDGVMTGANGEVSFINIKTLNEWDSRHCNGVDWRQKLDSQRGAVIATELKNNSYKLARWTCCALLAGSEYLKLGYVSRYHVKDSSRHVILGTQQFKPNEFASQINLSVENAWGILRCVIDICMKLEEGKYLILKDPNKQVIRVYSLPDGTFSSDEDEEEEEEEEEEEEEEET
UniProt Q6IA86: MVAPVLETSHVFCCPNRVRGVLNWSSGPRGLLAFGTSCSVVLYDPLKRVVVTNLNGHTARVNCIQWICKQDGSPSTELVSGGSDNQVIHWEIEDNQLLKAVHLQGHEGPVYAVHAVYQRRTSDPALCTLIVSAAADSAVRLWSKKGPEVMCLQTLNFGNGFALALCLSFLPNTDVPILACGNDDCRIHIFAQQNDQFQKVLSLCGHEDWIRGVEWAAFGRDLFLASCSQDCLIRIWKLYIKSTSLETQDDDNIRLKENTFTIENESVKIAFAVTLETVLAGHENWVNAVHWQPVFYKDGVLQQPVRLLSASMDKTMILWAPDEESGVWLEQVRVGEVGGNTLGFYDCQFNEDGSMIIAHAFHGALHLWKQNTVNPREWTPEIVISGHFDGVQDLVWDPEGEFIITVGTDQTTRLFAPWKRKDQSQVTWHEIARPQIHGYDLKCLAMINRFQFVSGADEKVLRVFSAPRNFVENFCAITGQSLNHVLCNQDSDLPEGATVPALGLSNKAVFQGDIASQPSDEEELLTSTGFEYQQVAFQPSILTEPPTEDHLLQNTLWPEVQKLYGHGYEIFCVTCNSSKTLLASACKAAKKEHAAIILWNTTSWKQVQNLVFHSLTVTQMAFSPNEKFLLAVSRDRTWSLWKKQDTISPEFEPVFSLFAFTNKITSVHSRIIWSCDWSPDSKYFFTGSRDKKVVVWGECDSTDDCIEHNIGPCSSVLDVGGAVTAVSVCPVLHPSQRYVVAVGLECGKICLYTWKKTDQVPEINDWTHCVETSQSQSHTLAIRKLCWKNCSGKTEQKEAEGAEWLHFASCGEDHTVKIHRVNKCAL
UniProt Q9NPA8: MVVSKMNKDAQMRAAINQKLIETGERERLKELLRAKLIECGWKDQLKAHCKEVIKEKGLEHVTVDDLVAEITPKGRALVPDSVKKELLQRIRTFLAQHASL
UniProt P60842, whole entry, looked up: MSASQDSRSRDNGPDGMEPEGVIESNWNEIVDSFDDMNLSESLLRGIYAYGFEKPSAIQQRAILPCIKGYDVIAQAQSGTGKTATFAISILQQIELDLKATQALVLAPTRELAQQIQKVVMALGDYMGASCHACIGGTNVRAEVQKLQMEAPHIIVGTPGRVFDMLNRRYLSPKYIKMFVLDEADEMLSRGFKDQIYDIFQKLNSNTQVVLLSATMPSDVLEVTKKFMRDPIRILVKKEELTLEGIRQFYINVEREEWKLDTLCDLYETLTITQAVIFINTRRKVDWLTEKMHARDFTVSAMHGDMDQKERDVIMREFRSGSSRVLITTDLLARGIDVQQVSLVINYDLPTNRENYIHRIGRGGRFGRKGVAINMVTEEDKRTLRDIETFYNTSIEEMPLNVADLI
UniProt O95834: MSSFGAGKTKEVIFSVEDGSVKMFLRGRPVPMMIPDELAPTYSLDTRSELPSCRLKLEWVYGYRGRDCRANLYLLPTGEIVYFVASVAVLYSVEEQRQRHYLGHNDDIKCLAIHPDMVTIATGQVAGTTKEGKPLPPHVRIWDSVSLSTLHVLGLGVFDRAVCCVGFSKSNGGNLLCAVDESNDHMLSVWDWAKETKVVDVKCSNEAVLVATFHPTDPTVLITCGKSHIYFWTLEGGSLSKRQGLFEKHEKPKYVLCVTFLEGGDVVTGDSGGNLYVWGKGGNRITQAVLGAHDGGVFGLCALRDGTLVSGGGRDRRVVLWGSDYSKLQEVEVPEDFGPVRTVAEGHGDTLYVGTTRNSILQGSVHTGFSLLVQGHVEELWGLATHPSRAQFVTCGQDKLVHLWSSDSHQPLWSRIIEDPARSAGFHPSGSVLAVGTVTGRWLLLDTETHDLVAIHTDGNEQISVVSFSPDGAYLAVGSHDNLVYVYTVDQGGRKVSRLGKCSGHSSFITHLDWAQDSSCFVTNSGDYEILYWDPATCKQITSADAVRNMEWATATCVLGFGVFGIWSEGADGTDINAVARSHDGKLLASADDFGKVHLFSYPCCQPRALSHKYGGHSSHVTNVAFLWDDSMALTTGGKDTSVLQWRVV

The other results are listed elsewhere or left out.

Compound in this assay: CC1Cc2ccccc2N1C(=O)C1CCCN(C1)C(=O)CCl (mixture of isomers) [TRIM25 ligand 11 (diastereomer mixture)]
The experiment in a line: probe-labelled cysteine peptide fold change vs DMSO (competition) (log2 fold change); higher = less target engagement (more negative = stronger competition). The conditions noted are these: THP-1, incubation time: 4 h.
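Also: competitive chemoproteomic profiling in live THP-1 cells with an iodoacetamide desthiobiotin (IA-DTB) probe, comparing probe-labelled peptide intensities in compound-treated cells against DMSO-treated controls.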

Regarding “ELP1_O95163_1025_ALSAFLTCGNWK (UniProt O95163)”, the “probe-labelled cysteine peptide fold change” value is -0.195 (10 µM) and 0.0614 (50 µM).
Taken in the same sequence, the figures for “EMC8_O43402_12_LTTQAYCK (UniProt O43402)” were -0.0682 and 0.0671.
As for “EPRS_P07814_623_VTWLAETTHALPIPVICVTYEHLITKPVLGK (UniProt P07814)”, the “probe-labelled cysteine peptide fold change” value is, setting by setting: (10 µM) -0.259; (50 µM) 0.127.
Take “EIF3B_P55884_420_GFHCESSAHWPIFK (UniProt P55884)”: the “probe-labelled cysteine peptide fold change” value was 0.214 (10 µM) and -0.0511 (50 µM).
In the case of “EIF4G3_O43432_913_MLTEAIMHDCVVK (UniProt O43432)”, the “probe-labelled cysteine peptide fold change” value (10 µM) was -0.018 and the “probe-labelled cysteine peptide fold change” value (50 µM) is -0.0478.
As to “ELMO2_Q96JJ3_550_LCEGSSFR (UniProt Q96JJ3)”, the “probe-labelled cysteine peptide fold change” value by setting is: (10 µM) -0.0079; (50 µM) -0.0672.
In the same order, the values of “EIF3B_P55884_527_NGDYLCVK (UniProt P55884)” are -0.0279 and 0.102.
Consider “EIF3D_O15371_438_WTCCALLAGSEYLK (UniProt O15371)”, for which the “probe-labelled cysteine peptide fold change” value (10 µM) was -0.0143 and the “probe-labelled cysteine peptide fold change” value (50 µM) is 0.0445.
In the case of “ELP2_Q6IA86_127_RTSDPALCTLIVSAAADSAVR (UniProt Q6IA86)”, the “probe-labelled cysteine peptide fold change” value runs as follows: (10 µM) 0.0716; (50 µM) -0.057.
As for ENY2_Q9NPA8_40_LIECGWK (UniProt Q9NPA8), the “probe-labelled cysteine peptide fold change” value runs as follows: (10 µM) -0.0641; (50 µM) 0.103.
“EIF4A1_P60842_134_VVMALGDYMGASCHACIGGTNVR (UniProt P60842)”: the “probe-labelled cysteine peptide fold change” value reads like this: (10 µM) 0.0707; (50 µM) 0.00912.
For the target “EIF4H_Q15056_85_GFCYVEFDEVDSLK (UniProt Q15056)”, the “probe-labelled cysteine peptide fold change” value was -0.0539 (10 µM) and -0.0183 (50 µM).
Regarding “EIF3E_P60228_350_IHQCISINMLADK (UniProt P60228)”, the “probe-labelled cysteine peptide fold change” value by setting is: (10 µM) 0.0357; (50 µM) 0.0144.
Turning to “EML2_O95834_163_AVCCVGFSK (UniProt O95834)”, the “probe-labelled cysteine peptide fold change” value reads like this: (10 µM) 0.146; (50 µM) 0.348.
Consider “EIF4G2_P78344_253_DMGEDLECLCQIMR (UniProt P78344)”, for which the “probe-labelled cysteine peptide fold change” value runs as follows: (10 µM) -0.0586; (50 µM) -0.0256.
